PubChem BioAssay AID1259405, NCATS, 2018

Aim: 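Knock-downs that lift recombinant protein yield in hamster ovary cells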 (primary screen)
Cell system: Chinese hamster CHO-K1 ovary cells with stable secreted eGFP expression
Reagents: single siRNA against mouse genes, 0.8 pmol siRNA per well (2 µl of 400 nM stock)
Timing: 3 days
Detection: 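Percent of the per-plate non-targeting control median for intracellular GFP per well by laser scanning cytometry and for cell viability by ATP luminescence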
Scale: GFP, % of control: higher = more GFP per well, higher productivity
Call rule: 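a knock-down is called active if GFP reaches 120% or more of non-targeting control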
Here is an unselected part of about 50,000 reagents tested. About 4,000 of them (8%) were called active. 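Mouse siRNA library applied to hamster cells; one well for each siRNA.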 A number with no mark means an inactive call. Reagents against one gene are numbered here. Not all columns of the deposit are shown.

GFP, % of control, by gene and reagent
Nlrp6 (GeneID 101613): #1 79.5; #2 22.3; #3 62.7
Emilin3 (GeneID 280635): #1 45.2; #2 68; #3 64.2
Dapk3 (GeneID 13144): #1 81.9
Or13a26 (GeneID 258964): #1 65.1; #2 79.2; #3 37.9
Xylt2 (GeneID 217119): #1 81.1; #2 60.8; #3 76
Eef2kmt (GeneID 70511): #1 71.5; #2 70; #3 88.3
Atox1 (GeneID 11927): #1 104; #2 61.7; #3 49.6
Magee2 (GeneID 272790): #1 89.3; #2 80.9; #3 61.4
Pla2g2c (GeneID 18781): #1 47.7; #2 65.3; #3 71
Klk6 (GeneID 19144): #1 99.6; #2 95.9; #3 125 (active)
Marchf8 (GeneID 71779): #1 57.5; #2 62.4; #3 43.3
Pcsk7 (GeneID 18554): #1 97.2; #2 99.1; #3 29.4
Rab24 (GeneID 19336): #1 80.8; #2 57.7; #3 70.2
Hps5 (GeneID 246694): #1 65.9; #2 50.6; #3 97.4
Slc22a3 (GeneID 20519): #1 102; #2 86.2; #3 109
Mapre1 (GeneID 13589): #1 66.8; #2 75.2; #3 68
Flcn (GeneID 216805): #1 42.9; #2 41.2; #3 107
Platr25 (GeneID 435366): #1 35.4; #2 75.1; #3 95.5
Tnrc6b (GeneID 213988): #1 47.8; #2 76.2; #3 86.7
Ubxn1 (GeneID 225896): #1 59.3; #2 52.3; #3 52.5
Bclaf3 (GeneID 382252): #1 70.4; #2 30.6; #3 65.1
Ncoa5 (GeneID 228869): #1 41.1; #2 40.7; #3 103
Clec1a (GeneID 243653): #1 39.6; #2 51.2; #3 78.3
Fam221b (GeneID 242408): #1 49.4; #2 32; #3 94.9
Yae1d1 (GeneID 67008): #1 115; #2 66.4; #3 158 (active)
Mettl13 (GeneID 71449): #1 36.9; #2 61.3; #3 79.4
Or4p20 (GeneID 258060): #1 162 (active); #2 83.6; #3 63.9
Yipf5 (GeneID 67180): #1 65; #2 23; #3 95.1
Sh3yl1 (GeneID 24057): #1 68; #2 54.4; #3 75.2
